Assay results published in the supplement of paper PMC10849652.
Some of the results follow.

Protein sequences, listed by entry. Tags and fused reporters are not part of them. Lines headed by an entry give the natural chain unless they say otherwise; changes in a name come on top.
UniProt Q86XN8: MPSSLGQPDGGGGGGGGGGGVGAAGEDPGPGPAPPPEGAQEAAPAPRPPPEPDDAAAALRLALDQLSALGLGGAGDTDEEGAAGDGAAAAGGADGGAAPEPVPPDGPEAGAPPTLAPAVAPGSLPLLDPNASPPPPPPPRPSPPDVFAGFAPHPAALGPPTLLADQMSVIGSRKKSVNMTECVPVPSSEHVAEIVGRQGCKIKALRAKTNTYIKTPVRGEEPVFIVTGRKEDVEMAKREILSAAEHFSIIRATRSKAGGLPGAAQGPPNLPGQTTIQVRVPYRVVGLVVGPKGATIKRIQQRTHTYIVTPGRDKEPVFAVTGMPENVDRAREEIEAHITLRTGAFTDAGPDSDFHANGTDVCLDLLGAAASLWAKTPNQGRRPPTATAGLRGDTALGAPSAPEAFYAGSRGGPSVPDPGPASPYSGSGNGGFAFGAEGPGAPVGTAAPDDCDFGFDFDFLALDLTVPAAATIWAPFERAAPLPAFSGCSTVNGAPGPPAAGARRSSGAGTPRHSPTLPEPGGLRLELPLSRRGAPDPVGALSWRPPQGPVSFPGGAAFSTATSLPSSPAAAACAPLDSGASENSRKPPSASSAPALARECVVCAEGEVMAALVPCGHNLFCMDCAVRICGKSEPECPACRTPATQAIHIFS
UniProt Q9NPJ6: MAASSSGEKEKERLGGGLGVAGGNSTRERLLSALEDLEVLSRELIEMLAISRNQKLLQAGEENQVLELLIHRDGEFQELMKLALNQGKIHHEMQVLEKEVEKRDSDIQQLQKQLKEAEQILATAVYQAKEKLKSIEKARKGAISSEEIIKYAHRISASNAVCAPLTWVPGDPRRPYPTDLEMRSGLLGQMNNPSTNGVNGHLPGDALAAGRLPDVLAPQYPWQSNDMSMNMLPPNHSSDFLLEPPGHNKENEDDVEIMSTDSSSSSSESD
UniProt Q06413, whole entry, looked up: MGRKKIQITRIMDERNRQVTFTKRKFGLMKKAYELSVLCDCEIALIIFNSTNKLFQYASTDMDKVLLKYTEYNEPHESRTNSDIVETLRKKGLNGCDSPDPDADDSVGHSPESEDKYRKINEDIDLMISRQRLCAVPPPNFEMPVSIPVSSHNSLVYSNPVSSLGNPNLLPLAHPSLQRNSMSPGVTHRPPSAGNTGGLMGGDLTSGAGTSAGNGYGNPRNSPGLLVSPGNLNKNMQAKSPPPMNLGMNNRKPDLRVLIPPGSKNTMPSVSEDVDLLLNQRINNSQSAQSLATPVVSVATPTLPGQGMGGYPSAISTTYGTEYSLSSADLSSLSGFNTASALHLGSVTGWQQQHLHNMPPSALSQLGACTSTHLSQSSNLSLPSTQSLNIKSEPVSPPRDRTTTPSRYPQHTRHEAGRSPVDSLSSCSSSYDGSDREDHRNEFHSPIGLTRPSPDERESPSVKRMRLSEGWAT
UniProt Q15528: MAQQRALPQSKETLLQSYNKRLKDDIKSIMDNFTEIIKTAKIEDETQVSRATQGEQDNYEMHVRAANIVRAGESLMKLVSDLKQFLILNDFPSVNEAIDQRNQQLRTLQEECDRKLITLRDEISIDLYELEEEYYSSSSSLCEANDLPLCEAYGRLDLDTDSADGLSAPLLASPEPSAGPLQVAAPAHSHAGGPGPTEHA
UniProt Q96G25: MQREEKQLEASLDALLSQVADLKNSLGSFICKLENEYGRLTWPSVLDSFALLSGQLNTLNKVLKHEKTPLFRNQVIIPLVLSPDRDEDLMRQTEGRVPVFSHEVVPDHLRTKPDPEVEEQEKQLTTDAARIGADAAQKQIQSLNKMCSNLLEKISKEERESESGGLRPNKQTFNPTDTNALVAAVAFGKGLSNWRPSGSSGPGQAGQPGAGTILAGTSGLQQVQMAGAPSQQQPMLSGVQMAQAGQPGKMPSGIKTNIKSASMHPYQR
UniProt Q8NI22: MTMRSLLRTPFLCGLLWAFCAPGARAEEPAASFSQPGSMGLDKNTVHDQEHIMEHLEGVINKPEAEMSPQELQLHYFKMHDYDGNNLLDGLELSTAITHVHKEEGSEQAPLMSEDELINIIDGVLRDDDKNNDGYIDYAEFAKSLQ
UniProt Q14696: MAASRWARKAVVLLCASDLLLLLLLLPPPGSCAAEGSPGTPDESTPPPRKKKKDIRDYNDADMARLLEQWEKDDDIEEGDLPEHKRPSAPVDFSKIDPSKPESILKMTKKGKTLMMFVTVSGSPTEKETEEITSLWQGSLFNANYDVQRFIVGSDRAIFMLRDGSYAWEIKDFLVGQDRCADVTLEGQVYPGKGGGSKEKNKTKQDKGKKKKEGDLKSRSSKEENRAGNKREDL
UniProt P56270: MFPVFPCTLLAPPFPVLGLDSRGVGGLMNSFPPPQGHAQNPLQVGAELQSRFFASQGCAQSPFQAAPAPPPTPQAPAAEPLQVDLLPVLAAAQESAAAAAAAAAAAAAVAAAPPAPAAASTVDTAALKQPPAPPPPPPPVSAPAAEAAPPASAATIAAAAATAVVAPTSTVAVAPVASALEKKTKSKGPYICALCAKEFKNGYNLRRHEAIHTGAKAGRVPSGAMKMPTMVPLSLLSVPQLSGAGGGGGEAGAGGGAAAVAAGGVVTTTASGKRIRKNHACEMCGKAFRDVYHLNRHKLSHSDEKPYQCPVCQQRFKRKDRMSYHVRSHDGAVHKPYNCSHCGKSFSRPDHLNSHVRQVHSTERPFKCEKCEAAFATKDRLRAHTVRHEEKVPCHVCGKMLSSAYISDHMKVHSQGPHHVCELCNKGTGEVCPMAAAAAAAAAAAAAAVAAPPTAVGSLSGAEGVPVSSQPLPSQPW
UniProt O95140: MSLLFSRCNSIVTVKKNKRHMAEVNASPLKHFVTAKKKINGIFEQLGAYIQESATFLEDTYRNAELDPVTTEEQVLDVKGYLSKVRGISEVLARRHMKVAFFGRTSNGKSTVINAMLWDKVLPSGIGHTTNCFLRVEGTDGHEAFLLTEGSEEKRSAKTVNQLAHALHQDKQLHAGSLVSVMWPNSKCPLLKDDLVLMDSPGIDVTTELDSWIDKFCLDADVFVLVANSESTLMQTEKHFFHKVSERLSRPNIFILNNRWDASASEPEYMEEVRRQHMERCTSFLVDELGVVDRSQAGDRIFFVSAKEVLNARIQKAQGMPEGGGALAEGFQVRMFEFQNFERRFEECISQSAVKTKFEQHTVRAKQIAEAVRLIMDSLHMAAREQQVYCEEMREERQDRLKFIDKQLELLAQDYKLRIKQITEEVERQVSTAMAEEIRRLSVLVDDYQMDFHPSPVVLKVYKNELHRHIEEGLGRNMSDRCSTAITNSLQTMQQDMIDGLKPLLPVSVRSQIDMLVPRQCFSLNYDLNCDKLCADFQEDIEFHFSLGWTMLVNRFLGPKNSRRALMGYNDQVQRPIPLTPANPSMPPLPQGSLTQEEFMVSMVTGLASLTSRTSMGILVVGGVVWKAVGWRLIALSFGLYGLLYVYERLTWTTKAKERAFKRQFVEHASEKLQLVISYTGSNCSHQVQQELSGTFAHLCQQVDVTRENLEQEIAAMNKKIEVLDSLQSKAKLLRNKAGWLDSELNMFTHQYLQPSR
UniProt O60244: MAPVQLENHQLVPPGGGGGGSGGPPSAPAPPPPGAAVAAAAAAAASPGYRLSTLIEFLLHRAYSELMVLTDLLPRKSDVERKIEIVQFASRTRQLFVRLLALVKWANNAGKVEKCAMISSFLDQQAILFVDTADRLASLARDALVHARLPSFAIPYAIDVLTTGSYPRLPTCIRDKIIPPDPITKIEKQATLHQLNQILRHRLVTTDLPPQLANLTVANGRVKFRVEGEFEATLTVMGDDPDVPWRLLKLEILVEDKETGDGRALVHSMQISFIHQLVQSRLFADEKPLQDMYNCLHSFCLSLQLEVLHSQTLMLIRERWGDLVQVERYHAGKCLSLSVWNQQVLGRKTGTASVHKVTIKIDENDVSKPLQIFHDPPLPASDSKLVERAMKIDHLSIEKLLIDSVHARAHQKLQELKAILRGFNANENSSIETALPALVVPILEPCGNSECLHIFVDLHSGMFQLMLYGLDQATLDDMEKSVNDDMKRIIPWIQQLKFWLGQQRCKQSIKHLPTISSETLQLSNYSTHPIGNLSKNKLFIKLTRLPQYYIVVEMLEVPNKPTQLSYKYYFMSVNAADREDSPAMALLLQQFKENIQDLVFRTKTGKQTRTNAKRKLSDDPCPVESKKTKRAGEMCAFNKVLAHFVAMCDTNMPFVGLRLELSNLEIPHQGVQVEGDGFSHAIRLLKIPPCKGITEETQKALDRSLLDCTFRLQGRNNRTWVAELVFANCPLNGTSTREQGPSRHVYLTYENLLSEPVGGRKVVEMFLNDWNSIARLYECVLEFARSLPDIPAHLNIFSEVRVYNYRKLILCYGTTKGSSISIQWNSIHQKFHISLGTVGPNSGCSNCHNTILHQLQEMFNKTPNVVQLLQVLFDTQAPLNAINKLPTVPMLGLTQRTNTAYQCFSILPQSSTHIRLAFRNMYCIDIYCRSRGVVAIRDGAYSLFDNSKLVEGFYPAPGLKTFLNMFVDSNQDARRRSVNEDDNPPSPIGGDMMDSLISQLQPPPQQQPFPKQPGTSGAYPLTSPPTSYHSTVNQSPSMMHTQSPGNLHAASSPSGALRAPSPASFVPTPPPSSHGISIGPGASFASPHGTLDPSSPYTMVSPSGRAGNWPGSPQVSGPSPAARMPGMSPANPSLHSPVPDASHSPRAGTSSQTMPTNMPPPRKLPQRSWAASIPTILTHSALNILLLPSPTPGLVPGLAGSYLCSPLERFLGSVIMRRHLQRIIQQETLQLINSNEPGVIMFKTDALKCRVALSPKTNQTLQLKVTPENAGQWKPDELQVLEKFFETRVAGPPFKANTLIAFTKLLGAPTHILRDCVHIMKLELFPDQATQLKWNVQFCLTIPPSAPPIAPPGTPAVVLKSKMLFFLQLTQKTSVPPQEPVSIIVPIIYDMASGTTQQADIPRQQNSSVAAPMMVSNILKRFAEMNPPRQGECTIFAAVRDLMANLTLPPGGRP
UniProt Q08431: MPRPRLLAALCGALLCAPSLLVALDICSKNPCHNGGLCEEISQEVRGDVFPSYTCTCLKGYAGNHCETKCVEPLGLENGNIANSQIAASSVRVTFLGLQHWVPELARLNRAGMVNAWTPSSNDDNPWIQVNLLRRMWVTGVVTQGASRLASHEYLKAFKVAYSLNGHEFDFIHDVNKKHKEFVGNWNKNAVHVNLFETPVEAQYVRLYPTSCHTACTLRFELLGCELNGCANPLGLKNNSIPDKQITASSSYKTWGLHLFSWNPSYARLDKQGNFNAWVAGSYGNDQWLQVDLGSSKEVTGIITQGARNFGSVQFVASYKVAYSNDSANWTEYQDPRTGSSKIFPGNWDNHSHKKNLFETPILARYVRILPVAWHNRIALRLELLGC
UniProt P33992: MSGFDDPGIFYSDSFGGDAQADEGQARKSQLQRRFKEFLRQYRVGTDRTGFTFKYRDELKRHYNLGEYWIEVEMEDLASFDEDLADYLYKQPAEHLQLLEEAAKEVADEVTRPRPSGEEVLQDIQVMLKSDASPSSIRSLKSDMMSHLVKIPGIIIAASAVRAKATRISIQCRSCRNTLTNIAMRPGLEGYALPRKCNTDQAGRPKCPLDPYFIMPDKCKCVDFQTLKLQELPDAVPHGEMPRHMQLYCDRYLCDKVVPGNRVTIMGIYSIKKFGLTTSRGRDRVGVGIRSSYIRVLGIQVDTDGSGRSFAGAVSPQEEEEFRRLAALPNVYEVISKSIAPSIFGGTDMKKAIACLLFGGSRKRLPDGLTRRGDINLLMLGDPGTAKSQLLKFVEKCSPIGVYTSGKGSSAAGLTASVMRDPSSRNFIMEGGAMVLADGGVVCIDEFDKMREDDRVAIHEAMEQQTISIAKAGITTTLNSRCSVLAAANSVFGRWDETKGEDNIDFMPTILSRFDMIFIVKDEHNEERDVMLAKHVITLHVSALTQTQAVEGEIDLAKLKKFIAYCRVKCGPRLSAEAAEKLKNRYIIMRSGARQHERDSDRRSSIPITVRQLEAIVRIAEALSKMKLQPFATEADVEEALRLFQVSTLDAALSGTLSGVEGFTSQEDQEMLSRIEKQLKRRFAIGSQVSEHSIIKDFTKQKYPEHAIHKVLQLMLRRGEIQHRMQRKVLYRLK
UniProt O43513: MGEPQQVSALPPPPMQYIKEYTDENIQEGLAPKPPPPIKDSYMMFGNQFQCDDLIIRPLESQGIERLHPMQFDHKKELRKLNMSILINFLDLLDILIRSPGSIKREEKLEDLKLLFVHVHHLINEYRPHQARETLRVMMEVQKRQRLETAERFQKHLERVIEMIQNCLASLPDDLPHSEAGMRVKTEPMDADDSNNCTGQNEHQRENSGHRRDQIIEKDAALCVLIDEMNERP
UniProt Q96HR3: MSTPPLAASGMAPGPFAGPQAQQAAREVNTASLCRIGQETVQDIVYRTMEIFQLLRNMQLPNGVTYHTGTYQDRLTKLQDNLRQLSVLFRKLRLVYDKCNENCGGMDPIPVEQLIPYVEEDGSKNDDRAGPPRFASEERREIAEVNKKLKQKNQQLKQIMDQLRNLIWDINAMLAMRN

Compound: C1=CC=C(C=C1)C2=NC(=C(N2)C3=CC=NC=C3)C4=CC(=C(C=C4)Cl)O
Assay: log2 fold change, soluble protein after heating vs DMSO (PISA); higher = thermal stabilisation; K562 lysate, 10 uM; active = over 0.2 and 3.5 SD of the protein, either way, in both replicates (recomputed)
In short: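 Log-two fold change in thermal stability relative to solvent controls is reported from duplicates. For each sample, crude K562 extract from dounce-homogenised pellets in PBS pH 7.4 with 1 mM MgCl2, at 1 mg/mL protein, was treated with 10 μM compound for 30 min. Aliquots heated for 3 min across 48°C-58°C were pooled, brought to 0.5% NP-40 at 4°C and cleared at 21,000xg for 90 min. The supernatant was quantified by TMTpro 16plex LC-MS/MS with channel sums equalised.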

log2 fold change, inactive:
METTL16 (UniProt Q86W50) 0.034
MEX3D isoform 3 (UniProt Q86XN8) 0.004
MED4 (UniProt Q9NPJ6) -0.002
MEF2C isoform 5 (UniProt Q06413) 0.076
MED22 isoform 2 (UniProt Q15528) -0.078
MFSD10 (UniProt Q14728) -0.008
MDH1 isoform 3 (UniProt P40925) 0.002
MCM4 (UniProt P33991) 0.028
METTL2A (UniProt Q96IZ6) -0.018
MED8 isoform 2 (UniProt Q96G25) 0.008
MCFD2 (UniProt Q8NI22) 0.004
MESD (UniProt Q14696) -0.013
METTL7A (UniProt Q9H8H3) 0.048
MED20 (UniProt Q9H944) -0.016
MEF2D (UniProt Q14814) -0.042
MCU (UniProt Q8NE86) -0.035
MAZ isoform 2 (UniProt P56270) 0.038
MBOAT2 (UniProt Q6ZWT7) -0.007
MDN1 (UniProt Q9NU22) 0.005
MFN2 (UniProt O95140) 0.008
MED14 (UniProt O60244) 0
MFGE8 (UniProt Q08431) 0.001
ME1 (UniProt P48163) -0.028
MFN1 (UniProt Q8IWA4) -0.022
METAP1 (UniProt P53582) -0.024
MED13L (UniProt Q71F56) -0.014
MCM5 (UniProt P33992) -0.001
MED15 (UniProt Q96RN5) 0.001
MED7 (UniProt O43513) 0.08
MED12 isoform 2 (UniProt Q93074) 0.004
METAP2 (UniProt P50579) 0.028
MBNL1 (UniProt C9JP00) -0.045
MED13 (UniProt Q9UHV7) -0.031
MED26 (UniProt O95402) 0.009
MED1 (UniProt Q15648) 0.027
MED17 (UniProt Q9NVC6) 0.014
MED30 (UniProt Q96HR3) -0.028
MFSD1 isoform 6 (UniProt Q9H3U5) 0.008

Two records drawn at random from those above, as already listed:
log2 fold change, inactive:
MCM4 (UniProt P33991) 0.028
MFSD10 (UniProt Q14728) -0.008
